Measured values reported in PubChem BioAssay (NCATS).
This list was built around the results that the source calls inconclusive (neither active nor inactive); the mix of calls is not that of the screen. A potency beside an inconclusive call is a rough fit, not a confirmed value. Activity calls are given as the source filed them. The call rests on the fitted dose curve; in most records, active means well fitted inhibition curve with a large enough effect; inconclusive means small, poorly fitted or top-dose-only effect; inactive means no such curve, though single readings can be large or run the other way.

By UniProt entry, the sequences of proteins in these tests, tags left out. Where a name states a change or a piece, a line headed by the entry shows the natural chain unless it says otherwise.
UniProt Q8WZA2: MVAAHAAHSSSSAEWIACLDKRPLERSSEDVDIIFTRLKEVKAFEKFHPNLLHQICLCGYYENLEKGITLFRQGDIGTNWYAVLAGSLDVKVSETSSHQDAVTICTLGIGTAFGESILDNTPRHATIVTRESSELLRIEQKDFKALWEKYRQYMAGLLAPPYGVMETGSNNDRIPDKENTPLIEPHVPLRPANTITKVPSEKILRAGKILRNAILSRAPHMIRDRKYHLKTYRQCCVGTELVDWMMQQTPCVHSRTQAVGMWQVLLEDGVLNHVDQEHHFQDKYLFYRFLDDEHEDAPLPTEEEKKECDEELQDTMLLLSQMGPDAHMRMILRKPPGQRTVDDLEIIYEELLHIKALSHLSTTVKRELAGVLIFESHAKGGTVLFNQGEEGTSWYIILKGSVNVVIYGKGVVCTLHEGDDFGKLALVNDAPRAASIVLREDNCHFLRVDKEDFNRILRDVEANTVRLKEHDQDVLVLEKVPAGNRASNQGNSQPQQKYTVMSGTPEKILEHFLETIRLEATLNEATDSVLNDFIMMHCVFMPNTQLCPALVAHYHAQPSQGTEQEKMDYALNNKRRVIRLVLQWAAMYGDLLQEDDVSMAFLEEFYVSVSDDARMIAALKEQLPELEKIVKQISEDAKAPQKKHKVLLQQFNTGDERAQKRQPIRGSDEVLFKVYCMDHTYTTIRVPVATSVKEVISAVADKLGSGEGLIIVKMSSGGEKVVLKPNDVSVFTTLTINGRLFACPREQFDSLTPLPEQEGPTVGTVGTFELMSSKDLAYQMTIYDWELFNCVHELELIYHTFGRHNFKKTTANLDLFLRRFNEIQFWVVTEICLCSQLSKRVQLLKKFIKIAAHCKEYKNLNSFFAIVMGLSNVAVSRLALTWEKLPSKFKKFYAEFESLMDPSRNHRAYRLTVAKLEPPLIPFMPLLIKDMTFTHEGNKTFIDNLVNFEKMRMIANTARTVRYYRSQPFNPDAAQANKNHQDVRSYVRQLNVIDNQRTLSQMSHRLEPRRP

molecular target: Rap guanine nucleotide exchange factor 4 (Homo sapiens) (UniProt Q8WZA2); test: Confirmatory qHTS for antagonist of cAMP-regulated guanine nucleotide exchange factor 4 (EPAC2) (AID 1645885); conditions: EPAC2 Rap1B-BODIPY-GDP exchange fluorescence, biochemical; activity change, negative = inhibition: at 12.7 µM (top of the series) unless noted; series mostly up to 114 µM; further: nearly all actives have a fitted effect of over 25% in size
On the % scale 0 is the no-effect control and ±100 the full control effect; potency means the concentration at half of the fitted maximal effect.

Question: With COc1ccc(-c2csc3ncn(-c4ccc(C)cc4)c(=O)c23)cc1OC as the molecule, how does the Potency read?
Answer: inconclusive: 42.6 µM [inhibitor, partial curve]

Question: O=S(=O)(Nc1nccs1)c1ccc(NCc2cc(Br)cc(Br)c2O)cc1 was tested. Which Potency did it give?
Answer: active: 1.51 µM

Question: How did the “activity change, negative = inhibition” value turn out when OC(c1ccccc1)(c1nc(-c2cccc(C(F)(F)F)c2)cs1)C(F)(F)F (configuration not stated) was run?
Answer: inactive: 147% [at 114 µM]

Question: Cc1cc(C(=O)c2ccc3ccccc3c2)c(C)o1 was tested. Which Potency did it give?
Answer: inconclusive: 47.8 µM [inhibitor, partial curve]

Question: Which “activity change, negative = inhibition” value does the source give for N[C@H](C(=O)O)C(O)C(O)C(O)CO (some centres not stated) here?
Answer: inactive: -10.4% [at 114 µM]

Question: Which Potency does the source give for CCCCC[C@H]1CN(Cc2ccccc2)C(=O)[C@@H]1CC(=O)NCc1ccc(OC)cc1 here?
Answer: active: 44.1 µM

Question: Which Potency does the source give for Cc1c(Cl)cccc1NC(=O)Nc1cccnc1 here?
Answer: inconclusive: 6.01 µM [inhibitor, partial curve, poor fit]

Question: How did the “activity change, negative = inhibition” value turn out when CC[C@]12c3[nH]c4cc(-c5ccco5)ccc4c3CCN1C(=O)[C@@H](CC(=O)NCCCOC)C[C@@H]2C(=O)N1CCN(C(=O)C2CC2)CC1 was run?
Answer: inactive: -5.54%

Question: N#Cc1c(-c2ccc(Cl)cc2)cc(-c2cccs2)nc1SCC(=O)O was tested. Which Potency did it give?
Answer: inconclusive: 75.7 µM [inhibitor, partial curve, poor fit]

Question: CC(=O)Nc1scc(-c2ccccc2)[n+]1-c1ccc(C)cc1 was tested. Which Potency did it give?
Answer: inconclusive: 3.79 µM [inhibitor, partial curve, poor fit]

Question: Which “activity change, negative = inhibition” value does the source give for COc1cc(Cl)cc(/C=N\NC(=O)c2ccc3c(c2)OCO3)c1O here?
Answer: inactive: -8.22% [at 114 µM]

Question: With Cc1ccc(S(=O)(=O)Nc2cc(C(=O)NCCN3CCCC3)ccc2N2CCCCC2)cc1 as the molecule, how does the “activity change, negative = inhibition” value read?
Answer: inactive: -14.8% [at 114 µM]

Question: For Cc1cc(C)c2c(CN3CCC(C)CC3)cc(=O)oc2c1, which Potency is on record?
Answer: inconclusive: 6.01 µM [inhibitor, partial curve, poor fit]

Question: COc1ccc(/C=N/NC(=O)c2ccccc2O)cc1Cn1nnc2ccccc21 was tested. Which Potency did it give?
Answer: inconclusive: 37.9 µM [inhibitor, single point]

Question: Which Potency does the source give for Cc1cc(C)nc(SCC(=O)c2ccc(Cl)cc2)n1 here?
Answer: inconclusive: 23.9 µM [inhibitor, full curve]

Question: Which “activity change, negative = inhibition” value does the source give for CCOc1ccc(/C=C2\SC(=S)NC2=O)cc1OC here?
Answer: inactive: 42.5% [at 114 µM]

Question: With CCCCn1c(N)c(N(CC(C)C)C(=O)C2CCN(C(=O)c3ccc(Cl)cc3)CC2)c(=O)[nH]c1=O as the molecule, how does the “activity change, negative = inhibition” value read?
Answer: inactive: -0.55% [at 114 µM]

Question: For CCC(=C(c1ccc(OC)cc1)c1ccc(OC)cc1)c1cn(CC(O)CN(CCO)CCO)c2ccccc12 (configuration not stated), which Potency is on record?
Answer: inconclusive: 21.3 µM [inhibitor, full curve, poor fit]

Question: Which Potency does the source give for CCN1CCN(S(=O)(=O)c2ccc(Cl)c(C(=O)N(C)Cc3cccc(Cl)c3Cl)c2)CC1 here?
Answer: inconclusive: 47.8 µM [inhibitor, partial curve]

Question: For CCOC(=O)c1c(NC(=O)/C=C/C(=O)O)sc(C)c1-c1ccc(C(C)(C)C)cc1, which Potency is on record?
Answer: inconclusive: 84.9 µM [inhibitor, single point]

Question: How did the Potency turn out when O=S(=O)(Nc1ccc(C(O)(C(F)(F)F)C(F)(F)F)cc1)c1ccc(Cl)c2nonc12 was run?
Answer: inconclusive: 42.6 µM [inhibitor, partial curve, poor fit]

Question: Which “activity change, negative = inhibition” value does the source give for COc1ccc(N2C(=O)Cc3cc(OC)c(OC)cc3C2c2ccc(F)cc2)cc1 (configuration not stated) here?
Answer: inactive: 13.9%

Question: For CN(Cc1ccc(Cl)cc1Cl)C(=O)CN1C(=O)NC2(CCCC2)C1=O, which “activity change, negative = inhibition” value is on record?
Answer: inactive: 30.4% [at 114 µM]

Question: CCOC(=O)c1c(C)[nH]c(C(=O)C(C)OC(=O)c2ccc(NC(=O)CC#N)cc2)c1C (configuration not stated) was tested. Which Potency did it give?
Answer: inconclusive: 37.9 µM [inhibitor, partial curve]

Question: For NS(=O)(=O)c1ccc(N/N=C/c2ccccc2C(=O)O)c([N+](=O)[O-])c1, which “activity change, negative = inhibition” value is on record?
Answer: inactive: -10.4% [at 114 µM]

Question: With COC(=O)CC1(c2ccc(OC)cc2)C(=O)c2ccccc2C1=O as the molecule, how does the “activity change, negative = inhibition” value read?
Answer: inactive: 52.2% [at 114 µM]

Question: Which Potency does the source give for O=C(COC(=O)c1ccc(O)cc1O)Nc1nnc(-c2ccccc2)o1 here?
Answer: active: 84.9 µM

Question: How did the Potency turn out when CCOC(=O)CSc1nc2c(c(=O)n(C)c(=O)n2C)n1Cc1ccccc1F was run?
Answer: inconclusive: 95.3 µM [inhibitor, single point]

Question: With COc1cc(SC)ccc1C(=O)N(Cc1ccccc1)c1ccccc1 as the molecule, how does the Potency read?
Answer: active: 23.9 µM

Question: How did the Potency turn out when COc1ccccc1-c1nc2ccccc2n(CC(C)C)c1=O was run?
Answer: inconclusive: 75.7 µM [inhibitor, partial curve]

Question: Which Potency does the source give for CNC(=O)CSc1nc2ccccc2c(=O)n1-c1cc(OC)ccc1OC here?
Answer: inconclusive: 7.57 µM [inhibitor, single point]

Question: How did the “activity change, negative = inhibition” value turn out when CCCC(=O)OCCNc1cc(SCc2ccco2)c2nonc2c1[N+](=O)[O-] was run?
Answer: inactive: -5.77%
